Experimental findings from patent publication US12605461B2 (priority 2019, dated 2026) are described below.

“And” between values parts separate entries of the source, which are not always exact repeats. Identical values can stand only once.

Series [1] can be described thus: general procedure: Fmoc solid-phase peptide synthesis; Fmoc-Ser(tBu)-Wang resin; HBTU. The following applies: whole synthesis, scale 0.5 mmol.
The nature of series [2]: general procedure: Fmoc solid-phase peptide synthesis; Fmoc-Gly-Wang resin; HBTU. The following applies: whole synthesis, scale 0.5 mmol.
Series [3] in a line: Quantification of peptide immobilization (amino acid analysis).

Regarding OA-SKAGAGPQGIQGQGAGKAK(OA)S, in series [1], the isolated mass was found to be 326 mg and the isolated yield came out at 30%.

In series [2], “Acetyl-GRGDSPASSKK(OA)G (N-acetyl; C-terminal oxyamine-modified Gly)” came in with an isolated mass of 114.9 mg and an isolated yield of 17%.

Regarding “Acetyl-GRGDSPASSKK(OA)G (N-acetyl; C-terminal oxyamine-modified Gly) [RGDOA]”, the “concentration of immobilized RGDOA” value was 34 ± 12 µM and 65 ± 14 µM in series [3] (after 1 h from a 250 μM solution, HA-oxime hydrogel); 65 ± 14 µM in series [3] (after 24 h from a 250 μM solution); 242 ± 76 µM in series [3] (after 24 h from a 1 mM solution).
